Assay results reported in the supplement of paper PMC3682954.
Where a name gives a salt, the structure may show the parent alone. ± gives the standard deviation of the averaged measurements. The list shows a part of the results. Many values rest on one well or one pass, so single values are uncertain.

Test system: RAW 264.7
Assay: HMGB1-induced TNF-alpha production relative to HMGB1-stimulated control; higher = more TNF-alpha secretion (less inhibition)
Details: stimulus: HMGB1 5 ug/ml, 18 h
[1] = compound concentration: 1 ug/ml

Row | SMILES | HMGB1-induced TNF-alpha production (compound concentration: 3 uM) [%] | HMGB1-induced TNF-alpha production [1] [%]
1 | N[C@@H](C(=O)N[C@@H]1C(=O)N2C(C(=O)O)=C(Cl)CS[C@H]12)c1ccccc1 | 97.8 ± 12 | 
2 | N[C@@H](C(=O)N[C@@H]1C(=O)N2C(C(=O)O)=C(Cl)CS[C@H]12)c1ccccc1 [Cefaclor] | 79.9 ± 6.2 | 55.8
3 | COc1ccc(-c2cc(C(F)F)nn2-c2ccc(S(N)(=O)=O)cc2)cc1F | 89.6 | 
4 | CC(C)NC[C@H](O)c1ccc(O)c(O)c1 [R(-)-Isoproterenol (+)-bitartrate] | 72.5 | 
5 | CC(Oc1ccccc1)C(=O)N[C@@H]1C(=O)N2[C@@H]1SC(C)(C)[C@@H]2C(=O)O (stereo partly drawn) [Phenethicillin potassium salt] | 113 | 
6 | CC(Oc1ccccc1)C(=O)N[C@@H]1C(=O)N2[C@@H]1SC(C)(C)[C@@H]2C(=O)O (stereo partly drawn) | 91.1 | 
7 | OC[C@H]1O[C@@H](O[C@@H]2[C@@H](CO)OC(O)(CO)[C@H]2O)[C@H](O)[C@@H](O)[C@H]1O (mixture of isomers) | 104 | 
8 | OC[C@H]1O[C@@H](O[C@@H]2[C@@H](CO)OC(O)(CO)[C@H]2O)[C@H](O)[C@@H](O)[C@H]1O (mixture of isomers) [Lactulose] |  | 68.7
9 | NCCS(=O)O [Hypotaurine] | 85.6 | 
10 | CO/N=C(\C(=O)N[C@@H]1C(=O)N2C(C(=O)O)=C(C[N+]3(C)CCCC3)CS[C@H]12)c1csc(N)n1 [Cefepime hydrochloride] | 114 | 
11 | CCOC(=O)[C@H](CCc1ccccc1)N[C@@H](C)C(=O)N1CCC[C@H]1C(=O)O [Enalapril maleate] | 84.7 | 
12 | CCOC(=O)[C@H](CCc1ccccc1)N[C@@H](C)C(=O)N1CCC[C@H]1C(=O)O [Enalapril] | 101 | 
13 | CCOC(=O)[C@H](CCc1ccccc1)N[C@@H](C)C(=O)N1CCC[C@H]1C(=O)O | 82.5 | 
14 | O=C1CC2(CCCC2)CC(=O)N1CCNCC1COc2ccccc2O1 (stereo not drawn) | 97.4 | 
15 | NC[C@@H]1O[C@H](c2ccccc2)Cc2c1ccc(O)c2O | 101 | 
16 | Cn1nnnc1SCC1=C(C(=O)O)N2C(=O)[C@@H](NC(=O)[C@H](OC=O)c3ccccc3)[C@H]2SC1 | 89.1 | 
17 | C[C@]12CC[C@@H]3c4ccc(O)cc4CC[C@H]3[C@@H]1C[C@H](O)[C@@H]2O | 87.3 | 
18 | NOCC(=O)O [O-(Carboxymethyl)hydroxylamine hemihydrochloride] | 78.5 | 
19 | CC1=C(CC(=O)O)c2cc(F)ccc2/C1=C\c1ccc([S+](C)[O-])cc1 (stereo not drawn) [Sulindac] | 98.7 ± 15 | 
20 | CC1=C(CC(=O)O)c2cc(F)ccc2/C1=C\c1ccc([S+](C)[O-])cc1 (stereo not drawn) | 103 | 
21 | CC(Oc1c(Cl)cccc1Cl)C1=NCCN1 (stereo not drawn) | 102 | 
22 | CC(Oc1c(Cl)cccc1Cl)C1=NCCN1 (stereo not drawn) [Lofexidine] | 75.7 ± 14 | 

Given as a markdown table: part of the list above

| Row | SMILES | HMGB1-induced TNF-alpha production (compound concentration: 3 uM) [%] | HMGB1-induced TNF-alpha production [1] [%] |
| --- | --- | --- | --- |
| 5 | CC(Oc1ccccc1)C(=O)N[C@@H]1C(=O)N2[C@@H]1SC(C)(C)[C@@H]2C(=O)O (stereo partly drawn) [Phenethicillin potassium salt] | 113 |  |
| 6 | CC(Oc1ccccc1)C(=O)N[C@@H]1C(=O)N2[C@@H]1SC(C)(C)[C@@H]2C(=O)O (stereo partly drawn) | 91.1 |  |
